Results are given in words; binding and its absence hold for the method and conditions named. Binding seen in cells or lysates may run through a third protein. Some binding calls cover weakened binding; strength is not graded here.
Target: T1, DCP1b (human (endogenous in A549)) (UniProt Q8IZD4)
T1 sequence: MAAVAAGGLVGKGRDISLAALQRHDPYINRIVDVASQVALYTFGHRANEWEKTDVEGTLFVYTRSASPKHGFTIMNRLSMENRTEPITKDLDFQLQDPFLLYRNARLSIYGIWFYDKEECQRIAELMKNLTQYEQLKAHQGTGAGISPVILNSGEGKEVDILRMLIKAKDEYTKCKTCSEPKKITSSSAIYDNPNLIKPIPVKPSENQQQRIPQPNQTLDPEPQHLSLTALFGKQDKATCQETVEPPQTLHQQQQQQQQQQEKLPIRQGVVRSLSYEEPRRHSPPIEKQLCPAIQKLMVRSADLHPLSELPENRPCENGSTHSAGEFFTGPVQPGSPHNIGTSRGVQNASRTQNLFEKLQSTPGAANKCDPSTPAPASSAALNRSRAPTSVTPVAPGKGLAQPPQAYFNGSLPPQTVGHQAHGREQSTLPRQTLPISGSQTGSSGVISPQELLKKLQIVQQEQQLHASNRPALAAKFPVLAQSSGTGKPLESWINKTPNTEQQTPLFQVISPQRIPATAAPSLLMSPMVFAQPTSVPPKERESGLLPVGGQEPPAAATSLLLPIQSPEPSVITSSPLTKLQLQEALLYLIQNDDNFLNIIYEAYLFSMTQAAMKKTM
Experiment: proximity ligation

B1: Ubiquitin C-terminal hydrolase L3 (UCHL3), endogenous (enzyme, UniProt P15374 1-230)
chain: MEGQRWLPLEANPEVTNQFLKQLGLHPNWQFVDVYGMDPELLSMVPRPVCAVLLLFPITEKYEVFRTEEEEKIKSQGQDVTSSVYFMKQTISNACGTIGLIHAIANNKDKMHFESGSTLKKFLEESVSMSPEERARYLENYDAIRVTHETSAHEGQTEAPSIDEKVDLHFIALVHVDGHLYELDGRKPFPINHGETSDETLLEDAIEVCKKFMERDPDELRFNAIALSAA
binding: binds

Reference: publication PMC13336449
